Reference: PubChem BioAssay AID504444 (National Center for Advancing Translational Sciences (NCATS), 2011)
The campaign covered roughly 360,000 compounds. About 7,500 (2.1%) were called active. The shares of active, inactive and inconclusive entries below differ from those in the screen. Calls come from the whole dose curve; as a rule, active = well fitted inhibition curve with a large enough effect; inconclusive = small, poorly fitted or top-dose-only effect, or effect the other way; inactive = flat fitted curve, though single readings scatter. A potency beside an inconclusive call is a rough fit, not a confirmed value.

Experiment: Nrf2 qHTS screen for inhibitors; note: nearly all actives have a fitted effect of over 60% in size
Settings: A549 ARE-Fluc reporter, luciferase luminescence, 18-24 h; series mostly up to 46 µM
In short: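 Quantitative HTS in A549 cells stably bearing an antioxidant response element-firefly luciferase construct. Inhibition of Nrf2-driven transcription was scored by luminescence after 18-24 h of compound exposure at 37 °C.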
Potency is the fitted concentration of half-maximal effect.

Row | SMILES | Potency
1 | CC1CCc2cc(F)ccc2N1C(=O)c1cc2nc(-c3ccco3)cc(C(F)(F)F)n2n1 (centres undefined) | inconclusive: 20.6 µM [falling, partial curve]
2 | O=[N+]([O-])c1ccc(SNc2ccccc2)c([N+](=O)[O-])c1 | inactive
3 | CC1CCCC(NC(=O)COC(=O)c2ccc([N+](=O)[O-])s2)C1C (centres undefined) | inconclusive: 29.1 µM [falling, partial curve, poor fit]
4 | COc1ccc(NC(=O)N2CCC(Cc3ccccc3)CC2)cc1 | inconclusive: 3.66 µM [falling, partial curve, poor fit]
5 | O=C(Nc1ccc2nsnc2c1)c1ccc2c(c1)OCO2 | inconclusive: 0.731 µM [activator, partial curve, poor fit]
6 | Cc1ccc(S(=O)(=O)NC2CCCc3ccccc32)cc1C (centres undefined) | inconclusive: 16.4 µM [falling, partial curve]
7 | COc1ccc(C(C(=O)NC2CCCCC2)N(C(=O)CCl)c2ccc(OC)cc2)cc1 (centres undefined) | inconclusive: 14.6 µM [falling, partial curve, poor fit]
8 | Clc1ccc(OCc2nnc3n2N=C(c2ccc4c(c2)OCCO4)CS3)c(Cl)c1 | inconclusive: 29.1 µM [falling, single point]
9 | CN(C(=O)c1ccccc1C(=O)OCC(=O)c1ccc(Br)cc1)c1ccccc1 | inconclusive: 32.6 µM [falling, single point]
10 | Cc1cccc(NC(=O)CN2C(=O)C(c3ccccc3)=NC23CCC(C)CC3)c1 (centres undefined) | inconclusive: 29.1 µM [falling, single point]
11 | Cc1ccc(C(=O)c2cc3ccccc3o2)cc1[N+](=O)[O-] | inconclusive: 20.6 µM [activator, single point]
12 | O=C(NCc1ccccc1)c1cccc(COc2ccccc2Cl)c1 | inconclusive: 0.58 µM [activator, full curve, poor fit]
13 | Cc1ccc(C(=O)NCc2nnc(SCC(=O)NC(C)c3ccccc3)n2C)cc1 (centres undefined) | inconclusive: 29.1 µM [activator, single point]
14 | c1ccc(-c2nnc(-c3ccccn3)nn2)nc1 | inconclusive: 1.64 µM [activator, partial curve, poor fit]
15 | Cc1ccc(S(=O)(=O)N2CCN(C(=O)CCOc3ccccc3C)CC2)cc1C | inconclusive: 25.9 µM [falling, single point]
16 | CCn1cc2nc(SCC(=O)Nc3ccc(C)cc3)n(Cc3ccc(C)cc3)c(=O)c2n1 | inconclusive: 29.1 µM [falling, single point]
17 | Cc1noc2ncnc(N3CCN(c4ccc(F)cc4)CC3)c12 | active: 7.31 µM
18 | CC(C)(C)C(=O)NC(c1ccccc1)c1c(O)ccc2ccccc12 (centres undefined) | inconclusive: 29.1 µM [falling, single point]
19 | CCOc1ccc(C2=NC(c3cccs3)=Nc3ccc(CC)cc3N2)cc1OCC | inconclusive: 32.6 µM [falling, partial curve, poor fit]
20 | CC(C)CC(NC(=O)c1ccc(Cl)cc1)C(=O)OCC(=O)c1ccc2c(c1)NC(=O)CO2 (centres undefined) | active: 16.4 µM
21 | CCCC12CN3CC(CCC)(CN(C1)C3c1c[nH]c3ccc(OC)cc13)C2=O (centres undefined) | inactive
22 | COc1ccc(-n2c(=S)[nH]c3ccccc3c2=S)cc1 | inconclusive: 10.3 µM [falling, partial curve, poor fit]

Row | SMILES | Potency
23 | CCCOc1ccc(CC2C(=O)Nc3ccc(Br)cc32)cc1 (centres undefined) | inactive
24 | CCC(C)Sc1cccc(-c2nc3ccc(C)cn3c2NCc2ccccc2)c1 (centres undefined) | inconclusive: 29.1 µM [falling, single point]
25 | Cc1ccc(C(=O)NCc2ccc(Cl)cc2)cc1S(=O)(=O)N1CCCCC1 | inconclusive: 25.9 µM [falling, single point]
26 | COc1ccc(-c2ccc(OC)c([C@H]3[C@H]4C=CC[C@@H](C)[C@@H]4C(=O)N3Cc3ccccc3)c2)cc1OC | inconclusive: 29.1 µM [falling, single point]
27 | CCOc1ccccc1CNC(=O)CCc1cn(C)c2ccccc12 | inconclusive: 18.4 µM [falling, single point]
28 | Cc1nc(SCC(=O)N2CCOCC2)c2c(C)c(C)sc2n1 | inactive
29 | COc1cc(C)ccc1OCCOc1c(C)cccc1Cl | inconclusive: 5.8 µM [activator, full curve, poor fit]
30 | O=C(NC1CCCC1)c1ccc2c(c1)N(Cc1ccccc1)CCS2 | inconclusive: 25.9 µM [falling, partial curve]
31 | Cn1c(=O)cc(OCCCC(=O)NCc2ccco2)c2ccccc21 | inconclusive: 14.6 µM [falling, single point]
32 | O=C(Nc1nc(-c2ccccn2)cs1)c1cccc(-n2cnnn2)c1 | active: 7.31 µM
33 | COc1ccc(NC(=O)Cn2c(=O)n(Cc3ccco3)c(=O)c3sc4ccccc4c32)cc1Cl | inactive
34 | COc1ccc(-c2nn(-c3ccccc3)cc2/C=C(\C#N)C(N)=O)cc1[N+](=O)[O-] | inconclusive: 4.11 µM [falling, full curve, poor fit]
35 | O=S(=O)(c1cccc(F)c1)N1CCCN(c2ccc(C(F)(F)F)cn2)CC1 | inconclusive: 29.1 µM [falling, single point]
36 | C=CCCN([C@H](CO)Cc1ccccc1)S(=O)(=O)c1ccccc1Br | inconclusive: 13 µM [activator, partial curve, poor fit]
37 | Cc1oc(-c2cccs2)nc1CN1CCN(CCC(C)C)C(CCO)C1 (centres undefined) | inconclusive: 32.6 µM [activator, partial curve, poor fit]
38 | Cc1ccc(N2CCn3c2nc2c3c(=O)n(Cc3cccc(Cl)c3)c(=O)n2C)cc1C | inconclusive: 10.3 µM [falling, partial curve]
39 | CC(C)c1ccc(NC(=O)CN2C(=O)C3(SCC(=O)N3c3ccc(F)cc3)c3ccccc32)cc1 (centres undefined) | inconclusive: 29.1 µM [falling, single point]
40 | COc1cc(C=NO)nc(-c2ccccn2)c1 | active: 1.16 µM
41 | Cc1cc(Cl)ccc1OCC(=O)N(Cc1cccs1)C1CCS(=O)(=O)C1 (centres undefined) | inconclusive: 29.1 µM [falling, single point]
42 | CS(=O)(=O)c1cnc(-c2ccccc2)nc1-c1ccc(Cl)c(Cl)c1 | inconclusive: 1.16 µM [activator, full curve, poor fit]
43 | CCOc1ccccc1N(C(=O)c1ccco1)C(C(=O)NC1CCCC1)c1cccs1 (centres undefined) | inconclusive: 29.1 µM [falling, single point]
44 | COc1ccc(CN(C)C(=O)Cn2cnc3c(OCc4ccccc4)ncnc32)cc1OC | inconclusive: 29.1 µM [falling, single point]

Row | SMILES | Potency
45 | COc1ccccc1C(=O)Nc1ccc2oc(-c3ccc(F)cc3)nc2c1 | inconclusive: 32.6 µM [falling, single point]
46 | C=CCn1c(SCC(=O)N2CCCCCC2)nc2ccccc2c1=O | inconclusive: 29.1 µM [falling, single point]
47 | COCCNC(=O)/C(C#N)=C/c1cc(C)n(C2CCCCC2)c1C | inconclusive: 9.2 µM [activator, partial curve]
48 | CCN(C(=O)COC(=O)c1ccc(Cl)c(N)c1)C1CCS(=O)(=O)C1 (centres undefined) | inconclusive: 2.06 µM [falling, single point]
49 | Cc1ccc(CCNC(=O)c2cc3ccccn3n2)cc1 | inconclusive: 9.2 µM [activator, partial curve, poor fit]
50 | Cc1ccc(Cn2c(C)c3cnn(CC(=O)N4CCN(c5cc(C)ccc5C)CC4)c(=O)c3c2C)cc1 | active: 8.2 µM
51 | CCc1ccc(Oc2coc3cc(OC(=O)c4cc5ccccc5oc4=O)ccc3c2=O)cc1 | active: 4.61 µM
52 | O=c1oc2ccc(Cl)cc2cc1-c1nc(-c2cccs2)no1 | inactive
53 | O=C(/C=C/c1ccc2c(c1)OCCO2)c1ccccc1 | inconclusive: 14.6 µM [activator, partial curve, poor fit]
54 | COc1ccc(-c2csc(NC(=S)NC(=O)c3ccco3)n2)cc1Br | inconclusive: 29.1 µM [falling, partial curve, poor fit]
55 | CCN(CC(=O)NCc1cccs1)C(=O)CCCOc1ccc(C(C)(C)C)cc1 | inconclusive: 29.1 µM [falling, single point]
56 | Cc1nc(-c2ccccn2)nc(SCC(=O)c2ccccc2)c1Cl | inconclusive: 18.4 µM [falling, single point]
57 | Cn1nc(-c2ccc(C(=O)N3CCN(CCO)CC3)cc2)c2ccccc2c1=O | inactive
58 | Cc1ccccc1N=C1c2cc([N+](=O)[O-])ccc2-c2ncccc21 | inactive
59 | Cc1ccc(NC(=O)CSCC(=O)Nc2cc(Cl)ccc2N2CCOCC2)cc1 | inconclusive: 29.1 µM [activator, single point]
60 | CCN1CCN(CCCNC(=O)CN2C(=O)c3cccnc3Oc3ccc(Cl)cc32)CC1 | inconclusive: 6.51 µM [activator, single point]
61 | Cc1ccccc1-c1nnn(CC(=O)c2ccc(S(=O)(=O)N3CCCC3)cc2)n1 | inconclusive: 32.6 µM [falling, partial curve, poor fit]
62 | Cc1cccc(C(=O)NCC(=O)NC2CCN(Cc3ccccc3)CC2)c1 | inactive
63 | CCn1c2ccccc2c2cc(Nc3cc(C)nc4ncnn34)ccc21 | inconclusive: 6.51 µM [activator, single point]
64 | O=c1nc(/C=C/c2ccc(O)c(O)c2)oc2ccccc12 | inconclusive: 18.4 µM [activator, partial curve]

4 entries out of the list, arranged by heavy-atom count, falling.
Row | SMILES | Potency
43 | CCOc1ccccc1N(C(=O)c1ccco1)C(C(=O)NC1CCCC1)c1cccs1 (centres undefined) | inconclusive: 29.1 µM [falling, single point]
31 | Cn1c(=O)cc(OCCCC(=O)NCc2ccco2)c2ccccc21 | inconclusive: 14.6 µM [falling, single point]
47 | COCCNC(=O)/C(C#N)=C/c1cc(C)n(C2CCCCC2)c1C | inconclusive: 9.2 µM [activator, partial curve]
11 | Cc1ccc(C(=O)c2cc3ccccc3o2)cc1[N+](=O)[O-] | inconclusive: 20.6 µM [activator, single point]
